Paper PMC9249628

Protein sequences, listed by entry. Tags and fused reporters are not part of them. Lines headed by an entry give the natural chain unless they say otherwise; changes in a name come on top.
UniProt P15941: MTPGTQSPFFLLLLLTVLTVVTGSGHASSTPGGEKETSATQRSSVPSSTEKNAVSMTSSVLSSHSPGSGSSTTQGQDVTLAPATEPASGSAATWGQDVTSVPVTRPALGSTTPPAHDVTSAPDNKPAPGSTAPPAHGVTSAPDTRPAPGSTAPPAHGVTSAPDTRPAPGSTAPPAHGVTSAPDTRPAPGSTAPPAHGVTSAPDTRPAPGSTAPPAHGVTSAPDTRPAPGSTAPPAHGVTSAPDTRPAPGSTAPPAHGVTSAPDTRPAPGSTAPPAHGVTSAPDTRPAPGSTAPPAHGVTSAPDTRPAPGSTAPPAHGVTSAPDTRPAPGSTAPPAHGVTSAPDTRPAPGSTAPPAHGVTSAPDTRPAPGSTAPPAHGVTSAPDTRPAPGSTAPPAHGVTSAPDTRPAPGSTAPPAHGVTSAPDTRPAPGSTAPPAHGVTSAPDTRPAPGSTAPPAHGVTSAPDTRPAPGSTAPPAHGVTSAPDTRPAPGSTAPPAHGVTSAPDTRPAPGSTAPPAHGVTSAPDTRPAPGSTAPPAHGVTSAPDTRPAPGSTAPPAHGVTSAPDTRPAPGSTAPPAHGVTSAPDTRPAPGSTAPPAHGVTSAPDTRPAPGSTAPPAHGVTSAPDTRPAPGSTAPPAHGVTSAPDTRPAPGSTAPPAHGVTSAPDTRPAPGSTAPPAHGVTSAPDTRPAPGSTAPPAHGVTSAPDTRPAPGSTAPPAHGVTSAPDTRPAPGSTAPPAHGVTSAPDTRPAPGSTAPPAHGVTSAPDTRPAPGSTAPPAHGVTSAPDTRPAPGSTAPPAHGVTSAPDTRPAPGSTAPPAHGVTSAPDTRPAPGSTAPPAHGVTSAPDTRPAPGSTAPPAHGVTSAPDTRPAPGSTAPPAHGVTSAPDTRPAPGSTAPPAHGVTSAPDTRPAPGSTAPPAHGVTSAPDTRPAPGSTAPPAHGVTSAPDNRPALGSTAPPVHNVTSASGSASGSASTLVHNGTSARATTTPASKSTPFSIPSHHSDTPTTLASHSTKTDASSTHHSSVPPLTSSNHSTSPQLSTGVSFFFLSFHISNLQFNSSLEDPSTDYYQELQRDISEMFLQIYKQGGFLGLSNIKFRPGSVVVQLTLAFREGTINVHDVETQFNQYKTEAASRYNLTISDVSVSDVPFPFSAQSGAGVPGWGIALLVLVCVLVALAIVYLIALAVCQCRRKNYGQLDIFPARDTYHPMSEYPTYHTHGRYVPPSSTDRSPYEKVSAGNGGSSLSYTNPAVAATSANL

Columns and labels:
[1] = biological target: MUC1-C (MUC1 C-terminal subunit) (human (endogenous in WaGa)); assay: co-IP; DNase-treated nuclear lysates of WaGa cells precipitated with anti-MUC1-C (or control IgG) at 4 °C overnight, Dynabeads Protein G; washes with 20 mM Tris-HCl pH 8.0, 0.5% NP40, 150 mM NaCl; immunoblot
[2] = biological target: GST-MUC1-CD (FL; aa 1-72) (UniProt P15941); assay: pull-down; GST or GST-MUC1-CD bound to glutathione beads incubated with equimolar purified MYCL; adsorbates immunoblotted with anti-MYCL; both purified

Row | binding [1] | binding [2] | Binder
1 | binds | – | MYCL (L-MYC) (protein, UniProt P12524 1-364) MDYDSYQHYFYDYDCGEDFYRSTAPSEDIWKKFELVPSPPTSPPWGLGPGAGDPAPGIGPPEPWPGGCTGDEAESRGHSKGWGRNYASIIRRDCMWSGFSARERLERAVSDRLAPGAPRGNPPKASAAPDCTPSLEAGNPAPAAPCPLGEPKTQACSGSESPSDSENEEIDVVTVEKRQSLGIRKPVTITVRADPLDPCMKHFHISIHQQQHNYAARFPPESCSQEEASERGPQEEVLERDAAGEKEDEEDEEIVSPPPVESEAAQSCHPKPVSSDTEDVTKRKNHNFLERKRRNDLRSRFLALRDQVPTLASCSKAPKVVILSKALEYLQALVGAEKRMATEKRQLRCRQQQLQKRIAYLTGY
2 | – | binds | purified full-length MYCL (aa 1-364) (protein, UniProt P12524 1-364) MDYDSYQHYFYDYDCGEDFYRSTAPSEDIWKKFELVPSPPTSPPWGLGPGAGDPAPGIGPPEPWPGGCTGDEAESRGHSKGWGRNYASIIRRDCMWSGFSARERLERAVSDRLAPGAPRGNPPKASAAPDCTPSLEAGNPAPAAPCPLGEPKTQACSGSESPSDSENEEIDVVTVEKRQSLGIRKPVTITVRADPLDPCMKHFHISIHQQQHNYAARFPPESCSQEEASERGPQEEVLERDAAGEKEDEEDEEIVSPPPVESEAAQSCHPKPVSSDTEDVTKRKNHNFLERKRRNDLRSRFLALRDQVPTLASCSKAPKVVILSKALEYLQALVGAEKRMATEKRQLRCRQQQLQKRIAYLTGY

Results are given in words; binding and its absence hold for the method and conditions named. A result given as binding can be weak or reduced; the word gives no strength. Where a sequence is shown, tags or fusion partners need not be part of it. For some assays here: Binding seen in cells or lysates may run through a third protein.
